Assay: general procedure: solution-phase peptide synthesis; HBTU/DIPEA; EDC.HCl/HOBt/DIPEA
Conditions: for final HPLC purity: 220 nm
[1] = late stage modification step, from Boc-protected tetrapeptide

Substance | step yield (coupling step) | final HPLC purity (late stage modification step) [%] | further results
tert-butyl (S)-1-((S)-2-((2S,5R)-2-((2S,3S)-1-(benzhydrylamino)-3 -methyl-1-oxopentan-2-ylcarbamoyl)-5-(5 -methylfuran-2-yl)pyrrolidin-1-yl)-1-cyclohexyl-2-oxoethylamino)-1-oxopropan-2-yl(methyl)carb amate | 85% yield |  | 
tert-butyl (S)-1-((S)-1-((2S,5R)-2-((2S ,3S)-1-(benzhydrylamino)-3 -methyl-l-oxopentan-2-ylcarbamo y1)-5-(5-methylfuran-2-yl)pyrrolidin-1-yl)-3-methyl-1-oxobutan-2-ylamino)-1-oxopropan-2-yl(methyl)carbamate | 83% yield |  | 
tert-butyl (S)-1-((S)-1-((2S,5R)-2-((2S ,3S)-1-(benzhydrylamino)-3-methyl-1-oxopentan-2-ylcarbamoyl)-5-phenylpyrrolidin-1-yl)-3-methyl-l-oxobutan-2-ylamino)-1-oxopropan-2-yl(methyl)carbamate | yield 84% |  | 
(2S,5R)-N-((2S,3S)-1-(benzhydrylamino)-3-methyl-l-oxopentan-2-yl)-1-((S)-3-methyl-2-((S)-2-(methylamino)propanamido)butanoyl)-5-phenylpyrrolidine-2-carboxamide |  |  | step yield (late stage modification step, from compound XIII): yield 87%
(2S,5R)-N-((2S,3S)-1-(benzhydrylamino)-3-methyl-1-oxopentan-2-yl)-1-((S)-3-methyl-2-((S)-2-(methylamino)propanamido)butanoyl)-5-(5-methylfuran-2-yl)pyrrolidine-2-carboxamide |  | 99 | step yield (late stage modification step, from Boc-protected peptide): 56% yield
(2S,3S)-benzyl 2-((2S,5R)-1-((S)-2-cyclohexyl-2((S)-2-(methylamino)propanamido)acetyl)-5-(5-methylfuran-2-yl)pyrrolidine-2-carboxamido)-3-methylpentanoate |  | 98 | step yield [1]: 62% yield
(2S,3S)-benzyl 2-((2S,5R)-1-((S)-2-((S)-2-(tert-butoxycarbonyl(methyl)amino)propanamido)-3-methylbutanoyl)-5-(5-methylfuran-2-yl)pyrrolidine-2-carboxamido)-3-methylpentanoate | 80% yield |  | 
(2S,3S)-benzyl 3-methyl-2((2S,5R)-1-((S)-3-methyl-2-((S)-2-(methylamino)propanamido)butanoyl)-5-(5-methylfuran-2-yl)pyrrolidine-2-carboxamido)pentanoate |  | 99 | step yield [1]: 62%
Boc-Ala-Val-Fro-Ile-OBn | 86% yield |  | 
Boc-N(Me)-Ala-Chg-Fro-Ile-OBn | 80% yield |  | 

Source: patent US20240083846A1 (COUNCIL OF SCIENTIFIC & INDUSTRIAL RESEARCH, priority 2020, published 2024)
